{"source": "paper PMC9307114", "about": "“Discovery and SAR analysis of phenylbenzo[d][1,3]dioxole-based proprotein convertase subtilisin/kexin type 9 inhibitors” (Journal of Enzyme Inhibition and Medicinal Chemistry, 2022)", "test_system": "HepG2 cells", "experiment": "MTT assay on HepG2 cells", "assay_type": "cell-based, human", "conditions": "10 µM, mean of three experiments", "data": [{"compound": "O=C(CCCCCCC(=O)Nc1ccccc1)NO", "note": "[SAHA, reference compound]", "values": [{"measurement": "HepG2 percentage inhibitory rate", "value": "89.2 ± 1.76", "unit": "%"}]}]}
